Measured values published in PMC8648109.
Results are given in words; binding and its absence hold for the method and conditions named. Binding calls can cover weak binding; strength is not graded here. For some assays here: Sequences can lack the tags named with a protein.

Assays:
[1] = molecular target: Flag-BMAL1 (pLV7-CAG-1xFlag-Bmal1, full length) (mouse); experiment: native gel or EMSA; 20 μg total cell extract with 32P-labelled E-box duplex, room temperature 20 min; supershift with 1 μg anti-Myc, anti-RELA or normal IgG on ice 30 min
[2] = molecular target: BMAL1, endogenous in mouse fibroblasts (mouse (endogenous in fibroblasts)); experiment: as above

B1: 3xFlag-CLOCK (protein, UniProt O08785 1-855)
chain: MVFTVSCSKMSSIVDRDDSSIFDGLVEEDDKDKAKRVSRNKSEKKRRDQFNVLIKELGSMLPGNARKMDKSTVLQKSIDFLRKHKETTAQSDASEIRQDWKPTFLSNEEFTQLMLEALDGFFLAIMTDGSIIYVSESVTSLLEHLPSDLVDQSIFNFIPEGEHSEVYKILSTHLLESDSLTPEYLKSKNQLEFCCHMLRGTIDPKEPSTYEYVRFIGNFKSLTSVSTSTHNGFEGTIQRTHRPSYEDRVCFVATVRLATPQFIKEMCTVEEPNEEFTSRHSLEWKFLFLDHRAPPIIGYLPFEVLGTSGYDYYHVDDLENLAKCHEHLMQYGKGKSCYYRFLTKGQQWIWLQTHYYITYHQWNSRPEFIVCTHTVVSYAEVRAERRRELGIEESLPETAADKSQDSGSDNRINTVSLKEALERFDHSPTPSASSRSSRKSSHTAVSDPSSTPTKIPTDTSTPPRQHLPAHEKMTQRRSSFSSQSINSQSVGPSLTQPAMSQAANLPIPQGMSQFQFSAQLGAMQHLKDQLEQRTRMIEANIHRQQEELRKIQEQLQMVHGQGLQMFLQQSNPGLNFGSVQLSSGNSNIQQLTPVNMQGQVVPANQVQSGHISTGQHMIQQQTLQSTSTQQSQQSVMSGHSQQTSLPSQTPSTLTAPLYNTMVISQPAAGSMVQIPSSMPQNSTQSATVTTFTQDRQIRFSQGQQLVTKLVTAPVACGAVMVPSTMLMGQVVTAYPTFATQQQQAQTLSVTQQQQQQQQQPPQQQQQQQQSSQEQQLPSVQQPAQAQLGQPPQQFLQTSRLLHGNPSTQLILSAAFPLQQSTFPPSHHQQHQPQQQQQLPRHRTDSLTDPSKVQPQ
In the case of B1, the binding [1] is reported as “binds”.

B2: CLOCK, endogenous in mouse fibroblasts (protein, UniProt O08785 1-855)
chain: MVFTVSCSKMSSIVDRDDSSIFDGLVEEDDKDKAKRVSRNKSEKKRRDQFNVLIKELGSMLPGNARKMDKSTVLQKSIDFLRKHKETTAQSDASEIRQDWKPTFLSNEEFTQLMLEALDGFFLAIMTDGSIIYVSESVTSLLEHLPSDLVDQSIFNFIPEGEHSEVYKILSTHLLESDSLTPEYLKSKNQLEFCCHMLRGTIDPKEPSTYEYVRFIGNFKSLTSVSTSTHNGFEGTIQRTHRPSYEDRVCFVATVRLATPQFIKEMCTVEEPNEEFTSRHSLEWKFLFLDHRAPPIIGYLPFEVLGTSGYDYYHVDDLENLAKCHEHLMQYGKGKSCYYRFLTKGQQWIWLQTHYYITYHQWNSRPEFIVCTHTVVSYAEVRAERRRELGIEESLPETAADKSQDSGSDNRINTVSLKEALERFDHSPTPSASSRSSRKSSHTAVSDPSSTPTKIPTDTSTPPRQHLPAHEKMTQRRSSFSSQSINSQSVGPSLTQPAMSQAANLPIPQGMSQFQFSAQLGAMQHLKDQLEQRTRMIEANIHRQQEELRKIQEQLQMVHGQGLQMFLQQSNPGLNFGSVQLSSGNSNIQQLTPVNMQGQVVPANQVQSGHISTGQHMIQQQTLQSTSTQQSQQSVMSGHSQQTSLPSQTPSTLTAPLYNTMVISQPAAGSMVQIPSSMPQNSTQSATVTTFTQDRQIRFSQGQQLVTKLVTAPVACGAVMVPSTMLMGQVVTAYPTFATQQQQAQTLSVTQQQQQQQQQPPQQQQQQQQSSQEQQLPSVQQPAQAQLGQPPQQFLQTSRLLHGNPSTQLILSAAFPLQQSTFPPSHHQQHQPQQQQQLPRHRTDSLTDPSKVQPQ
For B2, the binding [2] was “binds”.
